Experimental data taken from PubChem BioAssay AID897 (National Center for Advancing Translational Sciences (NCATS), 2007).
Inconclusive means that the source gave no clear call. Such entries were picked first, then a sample of the others. Potencies beside an inconclusive call are fits to weak or partial responses and may not hold up. Calls of active or inactive are those of the source. Calls come from the whole dose curve; as a rule, active = well fitted inhibition curve with a large enough effect in the main read-out, with a control signal flat (not every such curve was filed as active); inconclusive = small, poorly fitted or top-dose-only effect, or a change in a side signal; inactive = no such curve, though single readings can be large or run the other way.

By UniProt entry, the sequences of proteins in these tests, tags left out. Residues count along the entry.
UniProt P55210, 24-198 limits assumed: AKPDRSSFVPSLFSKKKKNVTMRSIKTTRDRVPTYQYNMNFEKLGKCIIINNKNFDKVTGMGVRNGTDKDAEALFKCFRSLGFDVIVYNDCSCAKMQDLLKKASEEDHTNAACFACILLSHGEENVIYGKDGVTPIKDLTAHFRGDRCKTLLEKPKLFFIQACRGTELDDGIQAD
UniProt P55210, 207-303 limits assumed: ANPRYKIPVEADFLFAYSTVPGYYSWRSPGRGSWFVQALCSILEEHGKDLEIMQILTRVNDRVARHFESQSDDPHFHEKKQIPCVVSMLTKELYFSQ

Target: Caspase-7 (Homo sapiens) (UniProt P55210)
Assay: Confirmation Concentration-Response Assay for Allosteric/Competitive Inhibitors of Caspase-7
Settings: recombinant caspase-7, fluorogenic substrate cleavage; series mostly up to 57.5 µM
Source text: NIH Molecular Libraries Screening Centers Network [MLSCN]
NIH Chemical Genomics Center [NCGC]
PI Name: Dr. James Wells,
Dr. Enrique Perez-Paya, Dr.Janice Williams, Dr. Dennis Wolan, a person
The caspases (Cysteine Aspartyl Protease) comprise a related family of 14 dimeric proteases that are critical mediators of apoptosis (programmed cell death) and inflammation. The caspases represent an important class of drug targets for stroke, ischemia, cancer and inflammatory diseases. […] One goal of this project was to identify compounds that act as allosteric inhibitors via stabilizing the procaspase form of the enzyme. Previous work in Well's laboratory has shown that such allosteric inhibitors can be identified and these act by binding at the dimer interface of enzyme (Hardy, Lam et al., 2004).
The biochemical assay was configured using purified caspase 7 at a high enzyme concentration to promote formation of the homodimers and thus facilitate the identification of allosteric inhibitors. The overall goal was to identify reversible inhibitors with better drug-like properties than the currently available set of aspartyl-containing peptidomimetics that covalently bind the active site. Caspase 7 was assayed using the profluorescent substrate Ac-DEVD-AFC. After initiation of the assay with substrate the plates were rapidly read using an automated robotic system (Kalypsys, Inc.) to maintain consistent timing. A kinetic mode of detection was used where the initial rate was collected (estimated final product formation was ~10%). Compounds were screened as a concentration-titration series that ranged from 57 uM to 0.7 nM. Below is the protocol used for caspase 7.
NCGC Assay Protocol Summary:
Caspase 7 was prepared in buffer (50 mM HEPES pH 7.5, 50 mM KCl, 200 mM NaCl, 10 mM DTT, 0.1% CHAPS) at a concentration of 66.6 nM and 3 uL was dispensed to all wells using black solid Kalypsys 1536-well plates. 20 nL of DMSO containing compounds was added using a pin-tool (Kalypsys Inc.) to columns 5-48. Then 20 nL of DMSO solution from a control plate was added to columns 1-4. […] The plates were then exposed using 405 nm excitation/520 nm emission filters for 4 sec and read at 20 sec intervals for 3 min. […]
Concentration-response curves were fitted to the data calculated from slope of the linear regression of fluorescent intensity versus time (the rate). The concentration-effect curves were then classified based on curve quality (r2), response magnitude and degree of measured activity. […] Inconclusive compounds had appreciable concentration-dependent effects on both the measured rate and the interpolated basal fluorescence intensity at the start of the reaction but where the basal fluorescent intensity was marginal (e.g. < 10-fold). […]

Structure (SMILES) | Potency
Cc1nc2c(C(=O)NCc3ccc4c(c3)OCO4)c[nH]n2c(=O)c1Cc1ccccc1F | inactive
O=C(c1ccc(Cl)c(Cl)c1)N(Cc1ccco1)c1ccc(O)cc1 | inconclusive: 12.6 µM [inhibitor, partial curve]
Cc1cc(C)cc(C(=O)N(C)[C@H](Cc2ccc(-c3ccccc3)cc2)C(=O)N[C@@H](Cc2c[nH]c3ccccc23)C(=O)O)c1 | active: 15.8 µM
CCCCCCC(=O)N1CCC(c2nc3c(nnn3Cc3ccccc3Cl)c(=O)[nH]2)CC1 | active: 3.98 µM
